Test results published in US20260108546A1 (ELI LILLY AND COMPANY, priority 2024, published 2026).
Some entries share one result that the patent states for a list of compounds.

Molecular target: T1, hGIP-R (Homo sapiens, UniProt P48546)
T1 construct: expressed in transfected cells; host or cells: HEK-293 clonal cell lines
T1 sequence (P48546 22-466): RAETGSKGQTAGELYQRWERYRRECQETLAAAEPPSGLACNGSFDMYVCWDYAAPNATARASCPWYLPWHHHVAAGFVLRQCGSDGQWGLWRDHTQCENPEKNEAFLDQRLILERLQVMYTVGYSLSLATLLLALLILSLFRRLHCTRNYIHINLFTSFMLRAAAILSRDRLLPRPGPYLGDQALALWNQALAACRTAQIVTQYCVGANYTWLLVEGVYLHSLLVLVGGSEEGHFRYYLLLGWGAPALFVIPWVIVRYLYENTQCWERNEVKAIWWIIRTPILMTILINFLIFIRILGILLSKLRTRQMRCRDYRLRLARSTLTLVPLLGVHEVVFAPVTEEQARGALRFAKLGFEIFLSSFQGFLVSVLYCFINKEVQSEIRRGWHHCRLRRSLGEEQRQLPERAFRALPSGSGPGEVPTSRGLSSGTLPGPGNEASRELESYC
Experiment: Functional hGIP-R Assay (cAMP formation, HTRF)
Assay type: cell-based
Settings: cAMP formation in HEK-293 clonal cell lines expressing hGIP-R; 30 min at 37° C.; 0.1% bovine casein; relative EC50 vs. maximal response of human GIP (1-42) OH
Procedure, shortened: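 HEK-293 cells expressing hGIP-R were given a 20-point compound series in DMEM with 0.1% casein, 250 μM IBMX, 1% DMSO, 30 min at 37 °C. cAMP was read by HTRF against a standard curve, expressed as % of human GIP (1-42) OH maximum; EC50 and Emax came from four-parameter fits.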

Structure (SMILES)	EC50 [nM]
Cc1nc(C2CC2)nc(O)c1-c1cc(C(F)(F)F)nn1CC(C)(C)NC(=O)[C@@H](Cc1cnn(C(F)F)c1)N1CC[C@@]2(C[C@@H]2c2ccc(-c3cnc4nn(C)cc4c3)cc2)C1=O [Example 122, (R)-N-(1-(5-(2-Cyclopropyl-4-hydroxy-6-methylpyrimidin-5-yl)-3-(trifluoromethyl)-1H-pyrazol-1-yl)-2-methylpropan-2-yl)-3-(1-(difluoromethyl)-1H-pyrazol-4-yl)-2-((1R,3R)-1-(4-(2-methyl-2H-pyrazolo[3,4-b]pyridin-5-yl)phenyl)-4-oxo-5-azaspiro[2.4]heptan-5-yl)propanamide]	≤ 300
[2H]C([2H])([2H])n1cc(C[C@H](C(=O)NC(C)(C)Cn2nc(C(F)(F)F)cc2-c2ccc(C(C)(C)O)nc2)N2CC[C@@]3(C[C@@H]3c3ccc(-c4cnc5nc(C6CC6)cn5c4)nc3C)C2=O)cn1 [Example 185, (R)-2-((1R,3R)-1-(6-(2-cyclopropylimidazo[1,2-a]pyrimidin-6-yl)-2-methylpyridin-3-yl)-4-oxo-5-azaspiro[2.4]heptan-5-yl)-N-(1-(5-(6-(2-hydroxypropan-2-yl)pyridin-3-yl)-3-(trifluoromethyl)-1H-pyrazol-1-yl)-2-methylpropan-2-yl)-3-(1-(methyl-d3)-1H-pyrazol-4-yl)propanamide]	≤ 300
CN(C(=O)[C@H]1C[C@@H]1c1ccc(-c2cnc3nn(C)cc3c2)cc1)[C@H](Cc1cnn(C)c1)C(=O)NC(C)(C)Cn1nc(C(F)(F)F)cc1-c1ccc(=O)n(C)c1 [Example 31, (1S,2S)-N-Methyl-N-((R)-1-((2-methyl-1-(5-(1-methyl-6-oxo-1,6-dihydropyridin-3-yl)-3-(trifluoromethyl)-1H-pyrazol-1-yl)propan-2-yl)amino)-3-(1-methyl-1H-pyrazol-4-yl)-1-oxopropan-2-yl)-2-(4-(2-methyl-2H-pyrazolo[3,4-b]pyridin-5-yl)phenyl) cyclopropane-1-carboxamide]	≤ 300
Cc1cn2cc(-c3ccc([C@H]4C[C@@]45CCN([C@H](Cc4cnn(C(F)F)c4)C(=O)NC(C)(C)Cc4nc(C(F)(F)F)cn4C4CCN(C)C4=O)C5=O)c(Cl)c3)cnc2n1 (single isomer, unassigned; isomer 1) [Example 177]	≤ 300
Cn1cc(C[C@@H](NC(=O)[C@H]2C[C@@H]2c2ccc(-c3cnc4nc(C(F)(F)F)cn4c3)cc2)C(=O)NC(C)(C)Cn2nc(C(F)(F)F)cc2-c2nnc[nH]2)cn1 [Example 25, (1S,2S)-N-((R)-1-((1-(5-(4H-1,2,4-Triazol-3-yl)-3-(trifluoromethyl)-1H-pyrazol-1-yl)-2-methylpropan-2-yl)amino)-3-(1-methyl-1H-pyrazol-4-yl)-1-oxopropan-2-yl)-2-(4-(2-(trifluoromethyl)imidazo [1,2-a]pyrimidin-6-yl)phenyl) cyclopropane-1-carboxamide]	≤ 300
Cn1cc(C[C@@H](NC(=O)[C@H]2C[C@@H]2c2ccc(-c3cnc4nn(C)cc4c3)cc2)C(=O)NC(C)(C)Cn2nc(C(F)(F)F)cc2-n2nccn2)cn1 (single isomer, unassigned) [Example 13]	≤ 300
Cn1cc2cc(-c3ccc(C4CC45CCN([C@H](Cc4cnn(C(F)F)c4)C(=O)NC(C)(C)Cn4nc(C(F)(F)F)cc4-c4cc(F)c(=O)n(C)c4)C5=O)c(C(F)F)c3)cnc2n1 (single isomer, unassigned; isomer 2) [Example 109]	≤ 300
COC(=O)N(C)c1cc([C@H]2C[C@@H]2C(=O)N[C@H](Cc2cnn(C(F)F)c2)C(=O)NC(C)(C)Cn2nc(C(F)(F)F)cc2-c2cc(F)c(=O)n(C)c2)c(F)cc1O [Example 181, Methyl (5-((1S,2S)-2-(((R)-3-(1-(difluoromethyl)-1H-pyrazol-4-yl)-1-((1-(5-(5-fluoro-1-methyl-6-oxo-1,6-dihydropyridin-3-yl)-3-(trifluoromethyl)-1H-pyrazol-1-yl)-2-methylpropan-2-yl)amino)-1-oxopropan-2-yl)carbamoyl)cyclopropyl)-4-fluoro-2-hydroxyphenyl)(methyl)carbamate]	≤ 300
COCc1cn2cc(-c3ccc([C@H]4C[C@@]45CCN([C@H](Cc4cnn(C(F)F)c4)C(=O)NC(C)(C)Cn4nc(C(F)(F)F)cc4-c4ccnc(C(C)(C)O)c4)C5=O)c(C)n3)cnc2n1 [Example 160, (R)-3-(1-(difluoromethyl)-1H-pyrazol-4-yl)-N-(1-(5-(2-(2-hydroxypropan-2-yl)pyridin-4-yl)-3-(trifluoromethyl)-1H-pyrazol-1-yl)-2-methylpropan-2-yl)-2-((1R,3R)-1-(6-(2-(methoxymethyl)imidazo[1,2-a]pyrimidin-6-yl)-2-methylpyridin-3-yl)-4-oxo-5-azaspiro[2.4]heptan-5-yl)propanamide]	≤ 300
CC(C)(Cc1ccc(F)cc1)NC(=O)[C@@H](Cc1cnc2ncccn12)NC(=O)[C@H]1C[C@@H]1c1ccc(-c2cnc3nc(C(F)(F)F)cn3c2)cc1 [Example 86, (1S,2S)-N-((R)-1-((1-(4-Fuorophenyl)-2-methylpropan-2-yl)amino)-3-(imidazo[1,2-a]pyrimidin-3-yl)-1-oxopropan-2-yl)-2-(4-(2-(trifluoromethyl)imidazo[1,2-a]pyrimidin-6-yl)phenyl)cyclopropane-1-carboxamide]	≤ 300
Cn1cc(-c2cc(C(F)(F)F)nn2CC(C)(C)NC(=O)[C@@H](Cc2cnn(C(F)F)c2)NC(=O)[C@H]2C[C@@H]2c2ccc3c(Cl)nn(C)c3c2)cc(F)c1=O [Example 183, (1S,2S)-2-(3-chloro-1-methyl-1H-indazol-6-yl)-N-((R)-3-(1-(difluoromethyl)-1H-pyrazol-4-yl)-1-((1-(5-(5-fluoro-1-methyl-6-oxo-1,6-dihydropyridin-3-yl)-3-(trifluoromethyl)-1H-pyrazol-1-yl)-2-methylpropan-2-yl)amino)-1-oxopropan-2-yl)cyclopropane-1-carboxamide]	≤ 300
COCn1ncc(-c2cc(C(F)(F)F)nn2CC(C)(C)NC(=O)[C@@H](Cc2cnn(C)c2)NC(=O)[C@H]2C[C@@H]2c2ccc(-c3cnc4nn(C)cc4c3)cc2)n1 [Example 65, (1S,2S)-N—((R)-1-((1-(5-(2-(Methoxymethyl)-2H-1,2,3-triazol-4-yl)-3-(trifluoromethyl)-1H-pyrazol-1-yl)-2-methylpropan-2-yl)amino)-3-(1-methyl-1H-pyrazol-4-yl)-1-oxopropan-2-yl)-2-(4-(2-methyl-2H-pyrazolo[3,4-b]pyridin-5-yl)phenyl)cyclopropane-1-carboxamide]	≤ 300
Cc1cn2cc(-c3ccc([C@H]4C[C@@H]4C(=O)N[C@H](Cc4cnc5ncccn45)C(=O)NC(C)(C)Cn4cc(C(F)(F)F)cn4)cc3)cnc2n1 [Example 83, (1S,2S)-N-((R)-3-(Imidazo[1,2-a]pyrimidin-3-yl)-1-((2-methyl-1-(4-(trifluoromethyl)-1H-pyrazol-1-yl)propan-2-yl)amino)-1-oxopropan-2-yl)-2-(4-(2-methylimidazo[1,2-a]pyrimidin-6-yl)phenyl)cyclopropane-1-carboxamide]	≤ 300
[2H]C([2H])([2H])n1cc(C[C@H](C(=O)NC(C)(C)Cn2nc(C(F)(F)F)cc2-c2ccc(C)nc2)N2CC[C@@]3(C[C@@H]3c3ccc(-c4cnc5nc(C6CC6)cn5c4)nc3C)C2=O)cn1 [Example 175, (R)-2-((1R,3R)-1-(6-(2-cyclopropylimidazo[1,2-a]pyrimidin-6-yl)-2-methylpyridin-3-yl)-4-oxo-5-azaspiro[2.4]heptan-5-yl)-N-(2-methyl-1-(5-(6-methylpyridin-3-yl)-3-(trifluoromethyl)-1H-pyrazol-1-yl)propan-2-yl)-3-(1-(methyl-d3)-1H-pyrazol-4-yl)propanamide]	≤ 300
[2H]C([2H])([2H])N(C(=O)C1CC1(C)c1ccc(-c2cnc3nn(C)cc3c2)cc1F)[C@H](Cc1cnn(C(F)F)c1)C(=O)NC(C)(C)Cn1nc(C(F)(F)F)cc1-c1cc(F)c(=O)n(C)c1 (single isomer, unassigned; isomer 1) [Example 140]	≤ 300
Cc1cc(C2CC2C(=O)N[C@H](Cc2cnn(C)c2)C(=O)NC(C)(C)Cc2ccc(F)cc2)ccc1NC(=O)Nc1ccc(F)cc1 (single isomer, unassigned; isomer 2) [Example 50]	≤ 300
CC(C)(Cn1cc(C(F)(F)F)cn1)NC(=O)[C@@H](Cc1cnc2ncccn12)NC(=O)C1CC1c1ccc(-c2cnc3nn(C(F)F)cc3c2)cn1 (single isomer, unassigned; isomer 2) [Example 72]	≤ 300
Cn1cc(C[C@@H](NC(=O)[C@H]2C[C@@H]2c2ccc(-c3cnc4nn(C)cc4c3)cc2)C(=O)NC(C)(C)Cn2nc(C(F)(F)F)cc2-c2cnn(CC3COC3)c2)cn1 [Example 55, (1S,2S)-N-((R)-1-((2-Methyl-1-(1′-(oxetan-3-ylmethyl)-5-(trifluoromethyl)-1′H,2H-[3,4′-bipyrazol]-2-yl)propan-2-yl)amino)-3-(1-methyl-1H-pyrazol-4-yl)-1-oxopropan-2-yl)-2-(4-(2-methyl-2H-pyrazolo[3,4-b]pyridin-5-yl)phenyl) cyclopropane-1-carboxamide]	≤ 300
Cn1cc(C[C@@H](NC(=O)C2CC2(C)c2ccc(-c3cnc4nn(C)cc4c3)cc2)C(=O)NC(C)(C)Cn2cc(C(F)(F)F)cn2)cn1 (single isomer, unassigned; isomer 4) [Example 11]	≤ 300
